Laboratory results reported in doi:10.1101/2025.03.25.645379.
Results are given in words; binding and its absence hold for the method and conditions named. Binding seen in cells or lysates may run through a third protein. Binding calls can cover weak binding; strength is not graded here.

How the values were obtained:
Assay in all cases: split reporter
[1] = molecular target: predicted metal binding domain (MBD) of CtpG (split-GFP fusion) (M. tuberculosis H37Rv) (UniProt P9WPS7)
[2] = molecular target: PacL2 (split-GFP fusion) (M. tuberculosis H37Rv) (UniProt P9WLP5)
[3] = molecular target: metal binding domain (MBD) of CtpC (split-GFP fusion) (M. tuberculosis H37Rv) (UniProt P9WPT5)
[4] = molecular target: metal binding domain (MBD) of CtpV (split-GFP fusion) (M. tuberculosis H37Rv) (UniProt P9WPS2)

Measured: binding

PacL1 (split-GFP fusion) (from UniProt P96874)
binds: [1] | [2] | [3] | [4]

PacL2 (split-GFP fusion) (from UniProt P9WLP5)
binds: [1] | [3] | [4]
